By UniProt entry, the sequences of proteins in these tests, tags left out. Residues count along the entry.
UniProt P70302, residues 23-685: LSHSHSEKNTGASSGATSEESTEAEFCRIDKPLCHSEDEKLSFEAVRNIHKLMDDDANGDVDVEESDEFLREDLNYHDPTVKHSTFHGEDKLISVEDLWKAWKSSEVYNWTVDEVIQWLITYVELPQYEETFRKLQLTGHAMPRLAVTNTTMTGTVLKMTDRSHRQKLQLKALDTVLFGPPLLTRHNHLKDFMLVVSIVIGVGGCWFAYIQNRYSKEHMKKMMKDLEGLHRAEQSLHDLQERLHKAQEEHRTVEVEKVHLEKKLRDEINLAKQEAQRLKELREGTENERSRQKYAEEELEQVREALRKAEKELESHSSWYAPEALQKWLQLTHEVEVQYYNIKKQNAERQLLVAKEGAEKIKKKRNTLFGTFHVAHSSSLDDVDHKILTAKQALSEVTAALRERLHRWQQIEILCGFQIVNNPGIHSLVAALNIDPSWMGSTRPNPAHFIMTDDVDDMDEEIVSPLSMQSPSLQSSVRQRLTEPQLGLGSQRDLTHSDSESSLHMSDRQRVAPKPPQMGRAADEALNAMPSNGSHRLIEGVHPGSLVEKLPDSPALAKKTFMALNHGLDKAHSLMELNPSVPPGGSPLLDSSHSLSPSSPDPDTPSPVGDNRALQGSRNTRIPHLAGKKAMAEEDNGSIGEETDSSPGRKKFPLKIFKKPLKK
UniProt Q9NVI1: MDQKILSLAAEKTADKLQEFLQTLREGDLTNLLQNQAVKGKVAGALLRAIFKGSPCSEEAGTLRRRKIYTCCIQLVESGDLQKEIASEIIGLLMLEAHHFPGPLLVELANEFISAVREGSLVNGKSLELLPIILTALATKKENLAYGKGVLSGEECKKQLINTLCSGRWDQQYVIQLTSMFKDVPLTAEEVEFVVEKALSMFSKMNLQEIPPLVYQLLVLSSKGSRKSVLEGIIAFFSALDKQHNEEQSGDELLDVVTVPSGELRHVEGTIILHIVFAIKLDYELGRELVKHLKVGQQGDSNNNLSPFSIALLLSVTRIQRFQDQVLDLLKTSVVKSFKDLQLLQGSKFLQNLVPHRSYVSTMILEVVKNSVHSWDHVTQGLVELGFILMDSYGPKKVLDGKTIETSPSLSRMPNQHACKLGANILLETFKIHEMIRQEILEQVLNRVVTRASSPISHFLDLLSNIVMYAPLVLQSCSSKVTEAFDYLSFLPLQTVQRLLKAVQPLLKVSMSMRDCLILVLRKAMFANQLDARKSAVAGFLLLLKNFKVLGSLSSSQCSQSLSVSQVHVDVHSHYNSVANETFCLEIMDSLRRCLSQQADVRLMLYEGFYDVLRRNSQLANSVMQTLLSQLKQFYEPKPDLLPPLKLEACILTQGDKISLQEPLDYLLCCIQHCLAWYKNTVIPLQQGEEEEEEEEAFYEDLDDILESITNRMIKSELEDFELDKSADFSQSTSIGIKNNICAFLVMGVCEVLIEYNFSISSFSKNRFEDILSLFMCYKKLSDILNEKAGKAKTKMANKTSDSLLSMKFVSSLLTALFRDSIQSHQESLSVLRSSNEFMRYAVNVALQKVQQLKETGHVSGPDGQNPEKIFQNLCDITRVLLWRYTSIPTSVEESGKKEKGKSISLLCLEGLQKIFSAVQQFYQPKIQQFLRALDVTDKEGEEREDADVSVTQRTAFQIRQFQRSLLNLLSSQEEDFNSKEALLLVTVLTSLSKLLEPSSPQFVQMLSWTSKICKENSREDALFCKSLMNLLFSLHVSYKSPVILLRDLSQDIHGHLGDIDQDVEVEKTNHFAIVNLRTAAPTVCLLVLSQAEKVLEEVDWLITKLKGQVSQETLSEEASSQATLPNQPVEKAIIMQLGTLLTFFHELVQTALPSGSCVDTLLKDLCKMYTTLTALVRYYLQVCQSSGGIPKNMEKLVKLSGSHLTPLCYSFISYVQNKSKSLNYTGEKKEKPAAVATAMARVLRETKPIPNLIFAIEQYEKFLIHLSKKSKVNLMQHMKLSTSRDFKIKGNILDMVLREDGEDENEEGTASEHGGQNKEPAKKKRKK
UniProt O15397: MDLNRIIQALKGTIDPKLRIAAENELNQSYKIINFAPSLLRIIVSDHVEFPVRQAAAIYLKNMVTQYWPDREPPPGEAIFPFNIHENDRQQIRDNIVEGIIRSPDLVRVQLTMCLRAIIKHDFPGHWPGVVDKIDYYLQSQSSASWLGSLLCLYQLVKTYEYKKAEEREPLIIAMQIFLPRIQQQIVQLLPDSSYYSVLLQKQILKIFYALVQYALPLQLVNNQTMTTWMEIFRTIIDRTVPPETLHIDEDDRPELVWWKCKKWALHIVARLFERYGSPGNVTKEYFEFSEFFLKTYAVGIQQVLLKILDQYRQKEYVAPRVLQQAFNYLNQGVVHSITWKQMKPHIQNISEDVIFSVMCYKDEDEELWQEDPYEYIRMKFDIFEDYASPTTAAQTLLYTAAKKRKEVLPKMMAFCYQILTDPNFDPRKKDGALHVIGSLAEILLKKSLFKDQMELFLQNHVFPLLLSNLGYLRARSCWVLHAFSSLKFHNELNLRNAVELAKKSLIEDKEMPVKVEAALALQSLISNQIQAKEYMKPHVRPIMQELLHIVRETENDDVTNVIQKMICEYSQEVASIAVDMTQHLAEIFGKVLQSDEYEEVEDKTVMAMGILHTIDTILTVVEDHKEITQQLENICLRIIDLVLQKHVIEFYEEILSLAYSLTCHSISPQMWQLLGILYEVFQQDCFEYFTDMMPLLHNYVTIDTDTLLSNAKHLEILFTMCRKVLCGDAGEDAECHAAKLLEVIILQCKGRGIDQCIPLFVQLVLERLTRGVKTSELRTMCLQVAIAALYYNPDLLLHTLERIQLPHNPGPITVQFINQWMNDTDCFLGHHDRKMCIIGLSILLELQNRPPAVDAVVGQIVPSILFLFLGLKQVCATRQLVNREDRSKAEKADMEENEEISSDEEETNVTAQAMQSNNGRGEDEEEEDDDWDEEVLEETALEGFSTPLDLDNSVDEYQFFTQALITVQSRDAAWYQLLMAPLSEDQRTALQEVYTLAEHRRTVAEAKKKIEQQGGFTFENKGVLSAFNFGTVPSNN
UniProt O14980: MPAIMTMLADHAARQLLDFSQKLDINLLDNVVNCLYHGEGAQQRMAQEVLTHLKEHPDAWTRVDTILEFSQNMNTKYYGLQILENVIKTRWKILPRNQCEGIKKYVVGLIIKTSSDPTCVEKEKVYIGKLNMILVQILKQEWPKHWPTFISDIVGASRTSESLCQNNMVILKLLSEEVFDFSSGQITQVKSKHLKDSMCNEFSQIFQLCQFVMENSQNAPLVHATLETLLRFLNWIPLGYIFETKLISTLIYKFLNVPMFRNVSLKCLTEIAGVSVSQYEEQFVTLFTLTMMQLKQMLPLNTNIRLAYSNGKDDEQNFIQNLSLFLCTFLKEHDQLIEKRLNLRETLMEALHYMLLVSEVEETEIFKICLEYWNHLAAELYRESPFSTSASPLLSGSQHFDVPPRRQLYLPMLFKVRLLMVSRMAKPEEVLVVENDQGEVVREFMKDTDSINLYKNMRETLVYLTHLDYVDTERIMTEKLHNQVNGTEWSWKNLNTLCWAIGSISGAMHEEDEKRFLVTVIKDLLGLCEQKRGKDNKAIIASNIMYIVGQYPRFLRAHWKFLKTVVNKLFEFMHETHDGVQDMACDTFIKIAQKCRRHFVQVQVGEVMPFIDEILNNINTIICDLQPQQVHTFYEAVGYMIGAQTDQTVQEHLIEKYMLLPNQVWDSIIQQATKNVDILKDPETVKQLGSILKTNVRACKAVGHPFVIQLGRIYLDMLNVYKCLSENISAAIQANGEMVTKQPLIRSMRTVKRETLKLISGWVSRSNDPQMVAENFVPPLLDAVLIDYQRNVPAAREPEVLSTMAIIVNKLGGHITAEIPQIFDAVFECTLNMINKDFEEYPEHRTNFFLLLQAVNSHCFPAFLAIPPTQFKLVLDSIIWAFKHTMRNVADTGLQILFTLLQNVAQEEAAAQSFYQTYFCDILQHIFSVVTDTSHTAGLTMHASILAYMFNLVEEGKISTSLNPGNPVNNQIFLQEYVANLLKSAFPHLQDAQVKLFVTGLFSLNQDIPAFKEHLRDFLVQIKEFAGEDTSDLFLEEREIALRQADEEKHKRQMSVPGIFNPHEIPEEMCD
UniProt Q92621: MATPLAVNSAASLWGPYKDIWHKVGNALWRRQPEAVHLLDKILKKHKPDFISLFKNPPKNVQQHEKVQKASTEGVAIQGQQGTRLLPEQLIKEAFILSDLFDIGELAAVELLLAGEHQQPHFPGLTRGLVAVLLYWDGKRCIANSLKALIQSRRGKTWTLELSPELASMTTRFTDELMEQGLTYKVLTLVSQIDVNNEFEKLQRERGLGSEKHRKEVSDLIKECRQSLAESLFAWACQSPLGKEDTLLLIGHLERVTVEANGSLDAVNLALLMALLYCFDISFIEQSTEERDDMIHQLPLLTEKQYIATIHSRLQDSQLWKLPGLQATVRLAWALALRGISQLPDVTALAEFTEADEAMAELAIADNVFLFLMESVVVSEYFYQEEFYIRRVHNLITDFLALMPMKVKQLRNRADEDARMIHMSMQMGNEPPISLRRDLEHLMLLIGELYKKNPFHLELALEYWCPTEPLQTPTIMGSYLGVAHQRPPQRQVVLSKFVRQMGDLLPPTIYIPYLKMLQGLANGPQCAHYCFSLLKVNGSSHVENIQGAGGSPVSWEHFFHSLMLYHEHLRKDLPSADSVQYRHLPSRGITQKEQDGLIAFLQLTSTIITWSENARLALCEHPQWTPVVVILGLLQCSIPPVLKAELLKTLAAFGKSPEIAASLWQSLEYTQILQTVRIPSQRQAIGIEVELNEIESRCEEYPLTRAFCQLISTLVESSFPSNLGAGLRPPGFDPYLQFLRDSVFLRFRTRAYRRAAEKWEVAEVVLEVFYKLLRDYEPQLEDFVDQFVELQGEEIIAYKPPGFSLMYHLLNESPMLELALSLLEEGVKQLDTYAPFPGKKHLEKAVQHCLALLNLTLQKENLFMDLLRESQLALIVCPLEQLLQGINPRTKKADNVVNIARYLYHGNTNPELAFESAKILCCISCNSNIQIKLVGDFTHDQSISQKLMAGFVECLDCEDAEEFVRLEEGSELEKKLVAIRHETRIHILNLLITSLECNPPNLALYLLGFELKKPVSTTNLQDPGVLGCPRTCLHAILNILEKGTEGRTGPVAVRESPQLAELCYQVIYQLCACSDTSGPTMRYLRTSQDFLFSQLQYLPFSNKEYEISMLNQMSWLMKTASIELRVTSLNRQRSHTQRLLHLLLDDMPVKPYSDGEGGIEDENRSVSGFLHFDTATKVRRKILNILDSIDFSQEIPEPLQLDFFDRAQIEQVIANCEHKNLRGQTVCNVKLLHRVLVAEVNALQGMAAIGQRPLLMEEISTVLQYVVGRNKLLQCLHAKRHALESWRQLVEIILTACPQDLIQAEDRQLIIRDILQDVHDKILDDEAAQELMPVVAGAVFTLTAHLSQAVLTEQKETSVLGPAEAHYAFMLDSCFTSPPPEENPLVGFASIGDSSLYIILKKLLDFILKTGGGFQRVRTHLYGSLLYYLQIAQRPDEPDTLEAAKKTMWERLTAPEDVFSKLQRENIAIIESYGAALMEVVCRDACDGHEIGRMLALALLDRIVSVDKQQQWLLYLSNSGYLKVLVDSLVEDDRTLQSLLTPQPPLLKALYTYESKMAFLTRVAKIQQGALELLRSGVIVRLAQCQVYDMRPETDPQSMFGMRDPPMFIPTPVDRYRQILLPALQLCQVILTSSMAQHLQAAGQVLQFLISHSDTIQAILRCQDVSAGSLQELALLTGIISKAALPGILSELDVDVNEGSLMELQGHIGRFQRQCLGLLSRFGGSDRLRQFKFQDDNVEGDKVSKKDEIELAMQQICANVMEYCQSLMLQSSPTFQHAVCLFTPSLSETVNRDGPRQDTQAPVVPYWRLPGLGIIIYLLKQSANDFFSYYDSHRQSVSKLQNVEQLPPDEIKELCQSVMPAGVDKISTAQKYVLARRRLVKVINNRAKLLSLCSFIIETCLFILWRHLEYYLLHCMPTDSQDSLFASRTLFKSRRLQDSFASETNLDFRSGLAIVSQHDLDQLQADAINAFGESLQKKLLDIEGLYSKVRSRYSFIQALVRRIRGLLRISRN

According to paper PMC10954485:

B1: IPO11 (protein, UniProt Q9UI26 1-975)
chain: MDLNSASTVVLQVLTQATSQDTAVLKPAEEQLKQWETQPGFYSVLLNIFTNHTLDINVRWLAVLYFKHGIDRYWRRVAPHALSEEEKTTLRAGLITNFNEPINQIATQIAVLIAKVARLDCPRQWPELIPTLIESVKVQDDLRQHRALLTFYHVTKTLASKRLAADRKLFYDLASGIYNFACSLWNHHTDTFLQEVSSGNEAAILSSLERTLLSLKVLRKLTVNGFVEPHKNMEVMGFLHGIFERLKQFLECSRSIGTDNVCRDRLEKTIILFTKVLLDFLDQHPFSFTPLIQRSLEFSVSYVFTEVGEGVTFERFIVQCMNLIKMIVKNYAYKPSKNFEDSSPETLEAHKIKMAFFTYPTLTEICRRLVSHYFLLTEEELTMWEEDPEGFTVEETGGDSWKYSLRPCTEVLFIDIFHEYNQTLTPVLLEMMQTLQGPTNVEDMNALLIKDAVYNAVGLAAYELFDSVDFDQWFKNQLLPELQVIHNRYKPLRRRVIWLIGQWISVKFKSDLRPMLYEAICNLLQDQDLVVRIETATTLKLTVDDFEFRTDQFLPYLETMFTLLFQLLQQVTECDTKMHVLHVLSCVIERVNMQIRPYVGCLVQYLPLLWKQSEEHNMLRCAILTTLIHLVQGLGADSKNLYPFLLPVIQLSTDVSQPPHVYLLEDGLELWLVTLENSPCITPELLRIFQNMSPLLELSSENLRTCFKIINGYIFLSSTEFLQTYAVGLCQSFCELLKEITTEGQVQVLKVVENALKVNPILGPQMFQPILPYVFKGIIEGERYPVVMSTYLGVMGRVLLQNTSFFSSLLNEMAHKFNQEMDQLLGNMIEMWVDRMDNITQPERRKLSALALLSLLPSDNSVIQDKFCGIINISVEGLHDVMTEDPETGTYKDCMLMSHLEEPKVTEDEEPPTEQDKRKKMLALKDPVHTVSLQQFIYEKLKAQQEMLGEQGFQSLMETVDTEIVTQLQEFLQGF
B2: XPOT (protein, UniProt O43592 1-962)
chain: MDEQALLGLNPNADSDFRQRALAYFEQLKISPDAWQVCAEALAQRTYSDDHVKFFCFQVLEHQVKYKYSELTTVQQQLIRETLISWLQAQMLNPQPEKTFIRNKAAQVFALLFVTEYLTKWPKFFFDILSVVDLNPRGVDLYLRILMAIDSELVDRDVVHTSEEARRNTLIKDTMREQCIPNLVESWYQILQNYQFTNSEVTCQCLEVVGAYVSWIDLSLIANDRFINMLLGHMSIEVLREEACDCLFEVVNKGMDPVDKMKLVESLCQVLQSAGFFSIDQEEDVDFLARFSKLVNGMGQSLIVSWSKLIKNGDIKNAQEALQAIETKVALMLQLLIHEDDDISSNIIGFCYDYLHILKQLTVLSDQQKANVEAIMLAVMKKLTYDEEYNFENEGEDEAMFVEYRKQLKLLLDRLAQVSPELLLASVRRVFSSTLQNWQTTRFMEVEVAIRLLYMLAEALPVSHGAHFSGDVSKASALQDMMRTLVTSGVSSYQHTSVTLEFFETVVRYEKFFTVEPQHIPCVLMAFLDHRGLRHSSAKVRSRTAYLFSRFVKSLNKQMNPFIEDILNRIQDLLELSPPENGHQSLLSSDDQLFIYETAGVLIVNSEYPAERKQALMRNLLTPLMEKFKILLEKLMLAQDEERQASLADCLNHAVGFASRTSKAFSNKQTVKQCGCSEVYLDCLQTFLPALSCPLQKDILRSGVRTFLHRMIICLEEEVLPFIPSASEHMLKDCEAKDLQEFIPLINQITAKFKIQVSPFLQQMFMPLLHAIFEVLLRPAEENDQSAALEKQMLRRSYFAFLQTVTGSGMSEVIANQGAENVERVLVTVIQGAVEYPDPIAQKTCFIILSKLVELWGGKDGPVGFADFVYKHIVPACFLAPLKQTFDLADAQTVLALSECAVTLKTIHLKRGPECVQYLQQEYLPSLQVAPEIIQEFCQALQQPDAKVFKNYLKVFFQRAKP

These molecules were tested against STIM1 (full-length)-GFP (mouse STIM1, RefSeq accession NP_033313.2) (mouse) (UniProt P70302) (assay: affinity purification with mass spectrometry; STIM1-GFP pulled down with GFP-Trap agarose beads from 1 mg clarified HEK293 lysate (1% NP-40 buffer, 1 h at 4°C, washes with 0.15 M NaCl), on-bead digestion, label-free quantification against GFP only).

binding, binds:
B1, B2

Biological target: STIM1 (full-length)-GFP (mouse STIM1, RefSeq accession NP_033313.2) (mouse) (UniProt P70302)
Assay: as above
Remark: another data set of the same source

binding, binds:
FANCI (from UniProt Q9NVI1 1-1328), Fanconi anemia (FA) protein FANCD2 (from UniProt Q9BXW9 1-1451), IPO8 (from UniProt O15397 1-1037), XPO1 (from UniProt O14980 1-1071), XPO5 (from UniProt Q9HAV4 1-1204), nuclear pore complex protein NUP205 (from UniProt Q92621 1-2012)

No constants are given. Whether binding was seen depends on the method and setting. Binding seen in cells or lysates may run through a third protein. Here binding means that the protein was enriched with, or labelled near, the bait; the list need not be complete.
